Data taken from paper PMC9935906, “Network of hotspot interactions cluster tau amyloid folds” (Nature Communications, 2023).
No constants are given. Whether binding was seen depends on the method and setting.

Assays:
[1] = target: VQIAYK peptide (human); test: ThT fluorescence aggregation assay + TEM; peptide alone, 200 µM in 1X PBS + 25 µM ThT, 37 °C, one week, endpoint ThT; fibrils checked by negative-stain TEM; self-assembly into fibrils; both purified
[2] = target: VQAVYK peptide (human); test: as above

binding [1] | binding [2] | Binder
no binding (tested: 200 µM) |  | VQIAYK [VQIAYK peptide]
 | no binding (tested: 200 µM) | VQAVYK [VQAVYK peptide]
